Results on two molecules are retold here after patent US20220031857A1.

By UniProt entry, the sequences of proteins in these tests, tags left out. Residues count along the entry.
UniProt Q62351, residues 89-763: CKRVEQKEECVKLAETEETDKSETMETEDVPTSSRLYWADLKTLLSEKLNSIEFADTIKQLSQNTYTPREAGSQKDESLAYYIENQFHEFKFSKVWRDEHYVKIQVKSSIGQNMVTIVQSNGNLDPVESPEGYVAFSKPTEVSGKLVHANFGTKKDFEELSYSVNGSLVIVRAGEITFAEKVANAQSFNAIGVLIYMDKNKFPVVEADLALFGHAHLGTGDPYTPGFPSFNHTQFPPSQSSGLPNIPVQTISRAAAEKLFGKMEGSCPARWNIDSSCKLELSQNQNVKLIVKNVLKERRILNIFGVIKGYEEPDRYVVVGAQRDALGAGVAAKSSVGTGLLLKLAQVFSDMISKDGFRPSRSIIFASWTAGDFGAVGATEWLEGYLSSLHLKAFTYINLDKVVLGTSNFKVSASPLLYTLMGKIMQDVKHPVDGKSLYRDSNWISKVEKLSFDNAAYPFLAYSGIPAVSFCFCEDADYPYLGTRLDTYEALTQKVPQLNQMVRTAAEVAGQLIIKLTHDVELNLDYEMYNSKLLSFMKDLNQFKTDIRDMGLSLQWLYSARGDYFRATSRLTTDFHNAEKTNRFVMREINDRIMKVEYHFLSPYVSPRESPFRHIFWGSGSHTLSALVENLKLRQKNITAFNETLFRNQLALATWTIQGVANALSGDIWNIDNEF

Results are given in words; binding and its absence hold for the method and conditions named. Some results given as binding are weak or reduced against the parent protein; the word gives no strength.

For the test, the target named is recombinant mouse TfR1 (transferrin receptor 1) (mouse) (UniProt Q62351). Description: ELISA. For orientation: ELISA stands for enzyme-linked immunosorbent assay.

B1: IDUA-clone 1-hFc (Fc fusion, not shown: a dimerising Fc or GST)
chain (part 1 of 2): ARVDQTPQTITKETGESLTINCVLRDNNCALSTTYWYRKKSGSTNEENISKGGRYVETVNSGSKSFSLKINDLTVEDSGTYRCNVRDVQACGNDWVWLDVYGGGTVVTVNA
chain (part 2 of 2): APHLVHVDAARALWPLRRFWRSTGFCPPLPHSQADQYVLSWDQQLNLAYVGAVPHRGIKQVRTHWLLELVTTRGSTGRGLSYNFTHLDGYLDLLRENQLLPGFELMGSASGHFTDFEDKQQVFEWKDLVSSLARRYIGRYGLAHVSKWNFETWNEPDHHDFDNVSMTMQGFLNYYDACSEGLRAASPALRLGGPGDSFHTPPRSPLSWGLLRHCHDGTNFFTGEAGVRLDYISLHRKGARSSISILEQEKVVAQQIRQLFPKFADTPIYNDEADPLVGWSLPQPWRADVTYAAMVVKVIAQHQNLLLANTTSAFPYALLSNDNAFLSYHPHPFAQRTLTARFQVNNTRPPHVQLLRKPVLTAMGLLALLDEEQLWAEVSQAGTVLDSNHTVGVLASAHRPQGPADAWRAAVLIYASDDTRAHPNRSVAVTLRLRGVPPGPGLVYVTRYLDNGLCSPDGEWRRLGRPVFPTAEQFRRMRAAEDPVAAAPRPLPAGGRLTLRPALRLPSLLLVHVCARPEKPPGQVTRLRALPLTQGQLVLVWSDEHVGSKCLWTYEIQFSQDGKAYTPVSRKPSTFNLFVFSPDTGAVSGSYRVRALDYWARPGPFSDPVPYLEVPVPRGPPSPGNP
For the molecule B1, the binding entry is listed as “binds”.

B2: IDUA-clone 10-hFc (Fc fusion, not shown: a dimerising Fc or GST)
chain (part 1 of 2): ARVDQTPQTITKETGESLTINCVLRDSNCALSSTYWYRKKSGSTNEENISKGGRYVETVNSGSKSFSLRINDLTVEDSGTYRCNVVQYPSYNNYFWCDVYGDGTAVTVNA
chain (part 2 of 2): B1 chain (part 2 of 2)
Turning to B2, the binding entry is given as “binds”.
